# Measurements: PubChem BioAssay AID493014 (National Center for Advancing Translational Sciences (NCATS), 2011)
# The other results are listed elsewhere or left out. These are further read-outs of the screen, such as a control signal, another cell line or another target. No call is given for them. Most of these compounds were active or inconclusive in the main read-out, so they are no random draw. Potencies come from curve fits of mixed quality, noted in brackets.
# Assay: qHTS Assay to Find Inhibitors of Chronic Active B-Cell Receptor Signaling
# Conditions: ABC-DLBCL IkBa-CBG/CBR reporter, luminescence ratio (green luciferase fused to IkBa over red control in TMD8 lymphoma cells), 4 h
# Method in brief: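 TMD8 human ABC-DLBCL cells with doxycycline-inducible IκBα–green luciferase fusion and unfused red luciferase, in 0.5% FBS medium; compounds up to 46 uM, 4 h at 37C. Green/red luminescence ratio, filter-overlap corrected, fitted to concentration-response curves.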
# [1] = measured here: CBR red luminescence, cell number
# [2] = measured here: IkBa-CBG green luminescence
Compound,AC50 [1],AC50 [2]
CC1CCc2c(sc(NC(=O)c3ccccc3C(=O)O)c2C#N)C1 (stereo not drawn),"11.2 µM [falling, partial curve, poor fit]",
Cc1nn(-c2ncc(C(F)(F)F)cc2Cl)c(=O)n1-c1ccccc1,"18.4 µM [rising, partial curve, poor fit]",
N/C(=N\OC(=O)/C=C/c1ccccc1)c1cccnc1,"17.8 µM [falling, single point]",
COCCNc1nc(-c2cc3ccccc3o2)cs1,"4.61 µM [falling, full curve, poor fit]",
CCCc1nnc(NC(=O)c2cc3ccccc3oc2=O)s1,"8.2 µM [rising, partial curve, poor fit]",
O=C1c2ccccc2NC(c2ccco2)N1/N=C/c1ccco1 (stereo not drawn),"35.5 µM [falling, single point]",
O=C(C1CCN(CCCc2ccccc2)CC1)N(CCc1ccccc1)Cc1ccccc1,"13 µM [falling, partial curve, poor fit]",
O=C(/C=C/NCC(=O)c1ccccc1)c1ccc(Br)cc1,"11.6 µM [falling, partial curve]",
O=C(Nc1cccc(Cl)c1)c1ccc(F)c(S(=O)(=O)N2CCC3(CC2)OCCO3)c1,"2.24 µM [rising, partial curve, poor fit]",
Cc1ccc(-c2cc(C(=O)N/N=C/c3ccoc3)c3ccccc3n2)cc1,"35.5 µM [rising, single point]",
O=C(Nc1ccc2oc(-c3ccncc3)nc2c1)c1ccc([N+](=O)[O-])o1,"14.1 µM [rising, single point]",
Cc1ccc(-n2c(O)c(C=Nc3cc(C)on3)c3ccccc3c2=O)c(C)c1,"32.6 µM [rising, partial curve, poor fit]",
CCC(C)NC(=O)CSc1nc2n[nH]c(C)c2c(=N)n1-c1ccc(C)c(Cl)c1 (stereo not drawn),"20 µM [falling, partial curve, poor fit]",
O=C(c1ccccc1)N1N=C(C(F)(F)F)CC1(O)c1ccccc1O (stereo not drawn),"22.4 µM [falling, single point]",
O=C(NCCOc1ccccc1)c1cc(C(=O)NCCOc2ccccc2)cc([N+](=O)[O-])c1,"14.6 µM [falling, partial curve]",
Cc1ccc2oc(=O)c3cnn(CC(=O)N4CCN(c5ccccc5)CC4)c3c2c1,"2.31 µM [falling, partial curve, poor fit]",
Cc1cc(C(=O)N/N=C/c2cccnc2)c(C)o1,"18.4 µM [falling, partial curve]",
N/C(=N\OC(=O)CCCc1ccccc1)c1ccccc1,"5.01 µM [rising, full curve]",
Cc1cc(C)cc(NC(=O)N2CCCC2C(=O)Nc2ccc(-n3cnnn3)cc2)c1 (stereo not drawn),"6.51 µM [rising, single point]",
CCOC(=O)c1[nH]c2ccc(OC)cc2c1NC(=S)N1CCN(c2cccc(Cl)c2)CC1,"32.6 µM [rising, single point]",
COc1ccc(Oc2nc(Oc3ccc(OC)cc3)nc(Oc3ccc(OC)cc3)n2)cc1,"0.651 µM [falling, full curve]",

Compound,AC50 [1],AC50 [2]
CCN(c1ccccc1)S(=O)(=O)c1ccc(C(=O)Nc2ccc(C)cn2)cc1,"5.8 µM [rising, partial curve, poor fit]",
O=C(NCc1ccco1)C(=O)NCC1OCCCN1S(=O)(=O)c1ccc(F)cc1 (stereo not drawn),"6.31 µM [falling, single point]",
CCOc1cccc(C2CC(=O)Nc3cc(OC)c(OC)cc32)c1 (stereo not drawn),"20 µM [rising, partial curve, poor fit]","11.2 µM [falling, partial curve]"
CCOC(=O)C1CCCN(CCC(=O)Nc2cccc(C)c2)C1 (stereo not drawn),"20 µM [falling, single point]",
CCCOc1cccc(C(=O)N(Cc2ccc(OC)c(OC)c2)C2CCS(=O)(=O)C2)c1 (stereo not drawn),"0.103 µM [rising, full curve, poor fit]",
CCOC(=O)c1[nH]c2c(c1-c1ccccc1)C(=O)CC(c1ccc(OC)c(OC)c1)C2 (stereo not drawn),"18.4 µM [falling, single point]",
COc1ccc(C(=O)NCc2cn3ccsc3n2)cc1OC,"1.16 µM [falling, partial curve, poor fit]",
CC1(C)Cc2ccccc2C(NNC(=O)c2ccccn2)=N1,"29.1 µM [rising, single point]","23.1 µM [falling, single point]"
Cc1nc(Nc2cccc(C(C)O)c2)c2nnn(Cc3ccc(F)cc3)c2n1 (stereo not drawn),"35.5 µM [rising, partial curve, poor fit]",
O=C(CC(C(=O)O)C1CCCO1)NCc1ccccc1 (stereo not drawn),"4.11 µM [falling, single point]",
CCNc1ccc2c(Cl)cc(=O)oc2c1,"5.17 µM [falling, partial curve, poor fit]",
COc1ccc(C2CC(=O)N(CCCN(C)CCc3ccc(OC)c(OC)c3)C2)cc1 (stereo not drawn),"25.1 µM [rising, single point]",
CCc1ccc2nc(SCC(=O)NCC3CCCO3)c(C#N)cc2c1 (stereo not drawn),"35.5 µM [rising, single point]",
COc1ccccc1NC(=O)C(CCS(C)(=O)=O)N1C(=O)c2ccccc2C1=O (stereo not drawn),"13 µM [rising, partial curve, poor fit]",
CCC1=Nc2cc(C(=O)NCc3cccnc3)ccc2Sc2ccc(C)cc21,"12.6 µM [rising, partial curve, poor fit]","11.2 µM [falling, partial curve]"
COc1cc2oc(=O)c(Br)c(C)c2c(OC)c1OC,"31.6 µM [rising, single point]",
Cc1cc(/C=N/Nc2ncnc(N)c2[N+](=O)[O-])c(C)n1-c1ccccc1,"12.6 µM [falling, single point]",
Cc1ccc(SC(C)C(=O)O/N=C(\N)c2ccncc2)cc1 (stereo not drawn),"22.4 µM [rising, single point]",
CC(C)CCn1c(SCCc2ccccc2)nc2c1c(=O)[nH]c(=O)n2C,"29.1 µM [falling, single point]",
COc1ccc(C(=O)NCc2cc(C)nc3ccccc23)cc1,"35.5 µM [rising, single point]","22.4 µM [falling, single point]"
COC(=O)c1cnn2c(C)c(Cc3c(C)cc(C)cc3C)c(C)nc12,"3.98 µM [rising, full curve, poor fit]",

# An excerpt from above in order of heavy-atom count, ascending:
Compound,AC50 [1],AC50 [2]
CCNc1ccc2c(Cl)cc(=O)oc2c1,"5.17 µM [falling, partial curve, poor fit]",
CCOC(=O)C1CCCN(CCC(=O)Nc2cccc(C)c2)C1 (stereo not drawn),"20 µM [falling, single point]",
CC(C)CCn1c(SCCc2ccccc2)nc2c1c(=O)[nH]c(=O)n2C,"29.1 µM [falling, single point]",

# Remaining list, next part

Compound,AC50 [1],AC50 [2]
C/C(=N\NC(=O)c1cc(-c2ccncc2)nc2ccccc12)c1ccc(N2CCOCC2)cc1,"35.5 µM [rising, single point]","22.4 µM [falling, single point]"
Cc1c(C(=O)Nc2ccccc2)sc2nc3n(c(=O)c12)CCCCC3,"35.5 µM [falling, single point]",
COc1ccc(S(=O)(=O)Nc2c(NC3CCCCC3)c3ccccc3oc2=O)cc1,"5.01 µM [falling, partial curve]",
COc1ccc(-c2nc(-c3ccncc3)no2)cc1,"0.447 µM [rising, full curve, poor fit]",
CCOc1ccc(Br)cc1C1C(C(=O)OC)=C(N)Oc2cc(N(C)C)ccc21 (stereo not drawn),,"18.4 µM [falling, partial curve, poor fit]"
Cc1nc2ccccc2c2nc3ccccc3n12,"0.00731 µM [falling, full curve, poor fit]",
O=C(CNC(=O)c1cccs1)NC1=NCCS1,"29.1 µM [falling, single point]",
O=C1N(CCCCN2C(=O)C3(OCCO3)c3ccccc32)c2ccccc2C12OCCO2,"8.2 µM [rising, partial curve]",
O=C1NC(=Nc2ccc(F)cc2)SC1Cc1ccc(F)cc1 (stereo not drawn),"10 µM [falling, partial curve]",
CCc1ccc2nc(N3C(=O)C(O)=C(C(=O)c4ccco4)C3c3cccs3)sc2c1 (stereo not drawn),"14.6 µM [falling, partial curve, poor fit]",
CCOc1ccc(NC(=O)c2cc(C3CC3)nc3c2cnn3C(C)C)cc1OC,"1.16 µM [rising, full curve]",
Brc1ccc(-c2cnc(-c3cccs3)o2)cc1,"0.562 µM [rising, full curve]",
Cc1nc2cc(-c3cccc(F)c3)nn2c(C)c1CCC(=O)NC(C)CCc1ccco1 (stereo not drawn),"0.326 µM [falling, full curve]",
COC(=O)COc1ccc(/C=N/NC(=O)c2ccc(N(Cc3ccccc3)S(C)(=O)=O)cc2)cc1,"29.1 µM [falling, single point]",
O=C(NC(=S)N(CCO)Cc1ccccc1)c1cc(Br)ccc1Cl,"22.4 µM [rising, single point]","28.2 µM [falling, single point]"
CC(=O)c1cc(-c2ccccc2)[nH]c1N1CCCC1,"25.9 µM [falling, single point]",
O=C(c1ccc(Br)cc1)N1CCN(S(=O)(=O)c2ccccc2)CC1,"11.6 µM [falling, partial curve, poor fit]",
CC(=O)Nc1ccc(NS(=O)(=O)c2c(Cl)cccc2Cl)cc1,"0.316 µM [rising, full curve, poor fit]",
CCCCCCCCCn1ccc(=N)cc1,"11.2 µM [falling, partial curve]",
CC(OC(=O)Cn1cc(C(F)(F)F)ccc1=O)C(=O)NC(C)c1ccc(Cl)cc1Cl (stereo not drawn),"2.31 µM [falling, single point]",
